{"source": "PubChem BioAssay AID1259425 (University of Nebraska Medical Center, 2018)", "aim": "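Find knockdowns that reproduce the gene expression pattern seen when KSR1 is lost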 (primary screen)", "system": "HCT116 human colon cancer cells", "reagents": "siRNA pool against human genes, 50 nM siRNA", "read-out": "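After 50 nM siRNA pool, branched-DNA assay measures six marker transcripts per well, minus blank, normalised to the geometric mean of two housekeeping transcripts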", "scale": "BNIP3L mRNA: higher = more BNIP3L transcript after knockdown; NDRG1 mRNA: higher = more NDRG1 transcript after knockdown", "note": "This is an unselected part of about 14,000 deposited reagents. Not all columns of the deposit are shown. The record does not give: the time to read-out."}
{"gene symbol": "ID3 (GeneID 3399)", "PubChem SID": "SID363993371", "BNIP3L mRNA, set 1": 0.11, "NDRG1 mRNA, set 1": 0.163}
{"gene symbol": "PBDC1 (GeneID 51260)", "PubChem SID": "SID364000153", "BNIP3L mRNA, set 1": 0.0799, "NDRG1 mRNA, set 1": 0.0917}
{"gene symbol": "ITGA5 (GeneID 3678)", "PubChem SID": "SID363993406", "BNIP3L mRNA, set 1": 0.0742, "NDRG1 mRNA, set 1": 0.159}
{"gene symbol": "P2RY11 (GeneID 5032)", "PubChem SID": "SID363993735", "BNIP3L mRNA, set 1": 0.146, "NDRG1 mRNA, set 1": 0.747}
{"gene symbol": "CA11 (GeneID 770)", "PubChem SID": "SID363992502", "BNIP3L mRNA, set 1": 0.0746, "NDRG1 mRNA, set 1": 0.201}
{"gene symbol": "IRF1 (GeneID 3659)", "PubChem SID": "SID363993399", "BNIP3L mRNA, set 1": 0.211, "NDRG1 mRNA, set 1": 0.107}
{"gene symbol": "RABAC1 (GeneID 10567)", "PubChem SID": "SID363997234", "BNIP3L mRNA, set 1": 0.237, "NDRG1 mRNA, set 1": 0.0589}
{"gene symbol": "MAP9 (GeneID 79884)", "PubChem SID": "SID364003091", "BNIP3L mRNA, set 1": 0.0991, "NDRG1 mRNA, set 1": 0.317}
{"gene symbol": "OR2A4 (GeneID 79541)", "PubChem SID": "SID364003485", "BNIP3L mRNA, set 1": 0.138, "NDRG1 mRNA, set 1": 0.157}
{"gene symbol": "ADCK5 (GeneID 203054)", "PubChem SID": "SID364004858", "BNIP3L mRNA, set 1": 0.273, "NDRG1 mRNA, set 1": 0.339}
{"gene symbol": "SF3B6 (GeneID 51639)", "PubChem SID": "SID363999823", "BNIP3L mRNA, set 1": 0.145, "NDRG1 mRNA, set 1": 0.354}
{"gene symbol": "VAC14 (GeneID 55697)", "PubChem SID": "SID364000740", "BNIP3L mRNA, set 1": 0.412, "NDRG1 mRNA, set 1": 5.01}
{"gene symbol": "VAC14 (GeneID 55697)", "PubChem SID": "SID364005026", "BNIP3L mRNA, set 1": 0.109, "NDRG1 mRNA, set 1": 0.355}

2 entries already listed, sorted by “NDRG1 mRNA, set 1”, descending:
{"gene symbol": "MAP9 (GeneID 79884)", "PubChem SID": "SID364003091", "BNIP3L mRNA, set 1": 0.0991, "NDRG1 mRNA, set 1": 0.317}
{"gene symbol": "RABAC1 (GeneID 10567)", "PubChem SID": "SID363997234", "BNIP3L mRNA, set 1": 0.237, "NDRG1 mRNA, set 1": 0.0589}
